# ChEMBL document CHEMBL4513151, “CO-ADD screening of Institut Català d'Investigació Química (Spain) compounds”
# Several values for one entry are separate records, joined by “and”; a condition that tells them apart may be missing. Identical values can stand only once. The list shows a part of the results. Results with a measured potency or affinity are listed apart.
# Test system: Pseudomonas aeruginosa
# Details: Concentration 32 ug.mL-1, ASSAY_TEST Inhibition of Bacterial Growth, detection method Absorption (OD600), MEDIA CAMHB, plate type 384well, NBS, CORNING #3640, time 18 hr
Compound,Inhibition [%],Inhibition (32 ug/mL)
C=C1CC(COC)(COC)C[C@@H]1[C@@H](Nc1ccc(Br)cc1)c1ccccc1,15.11,–
C[C@]12CC[C@@](C3CC3)(O1)[C@H]1C=C[C@H](OC(=O)c3ccccc3)[C@H]12,–,8.14% and 15.07%
C[C@@H]1CC(=O)C=C2C(=O)[C@@H]3[C@@H](C3(C)C)[C@]21C,11.33,–
C[C@]12CC[C@@](c3ccc4ccccc4c3)(O1)[C@H]1C=C[C@H](OC(=O)c3ccccc3)[C@H]12,20.08,–
C[C@]12CC[C@@](C3CCCC3)(O1)[C@H]1C=C[C@H](OC(=O)c3ccccc3)[C@H]12,5.09,–
C=C1CC(C(=O)OC)(C(=O)OC)C[C@@H]1[C@H](c1ccccc1)n1ccc2ccccc21,7.04,–
C=C1CC(C(=O)OC)(C(=O)OC)C[C@@H]1[C@H](c1ccccc1)n1ccc2ccc(Cl)cc21,21.99,–
C[C@]12CC[C@@](C)(O1)[C@H]1C=C[C@H](OC(=O)c3ccccc3)[C@H]12,6.63,–
C[C@]12CC[C@@](c3ccc(C(F)(F)F)cc3)(O1)[C@H]1C=C[C@H](OC(=O)c3ccccc3)[C@H]12,–,13.15% and 6.93%
C=C1CC(C(=O)OC)(C(=O)OC)C[C@@H]1[C@@H](NS(=O)(=O)c1ccc(C)cc1)c1ccccc1,15.93,–
C[C@]12CC[C@@H](O1)[C@H]1C=C[C@H](OC(=O)c3ccccc3)[C@H]12,10.45,–
C=C1CC(COCc2ccc(OC)cc2)(COCc2ccc(OC)cc2)C[C@@H]1[C@@H](Nc1ccc(Br)cc1)c1ccccc1,-12.65,–
C=C1CC2(COC(C)(C)OC2)C[C@@H]1[C@@H](Nc1ccc(Br)cc1)c1ccccc1,26.45,–
